Measurements: patent US20030198692A1, “Microbial inhibitory compositions” (priority 2000, published 2003)
Some entries share one result that the patent states for a list of compounds.

Tested on: Burkholdera cepacia
Assay: Growth of Burkholdera cepacia in the presence of polymyxin B and furanones
Assay type: cell-based
Conditions: furanone 10 μg/ml with polymyxin B 0.3-1 μg/ml

SMILES	prolongation of lag phase of growth of B. cepacia [h]
O=C1C=C(Br)/C(=C/Br)O1 [Compound 30]	8 to 10
CCCC(F)C1=C(Br)/C(=C/Br)OC1=O (centres unmarked) [Compound 45]	8 to 10
